Laboratory results: PubChem BioAssay AID743121 (NCATS, 2013)
This is one part, drawn at random, of about 26,000 reagents. 167 of them (0.63%) count as active. 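Calls are per gene from RSA p-values that are not deposited; an individual active-marked siRNA can sensitise only weakly.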 Entries without a mark were called inactive. Reagents against one gene are numbered here.

- Assay: 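Knock-downs that sensitise breast cancer cells to camptothecin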 (primary screen)
- System: MDA-MB-231 cells, a human breast cancer line
- Reagents: single siRNA against human genes, 20 nM siRNA (0.8 pmol per well)
- Duration: 120 h (drug added 48 h after transfection, read 72 h later)
- Challenge: camptothecin 20 nM (about EC30) for 72 h; vehicle 0.1% DMSO in parallel plates
- Detection: 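CellTiter-Glo ATP signal, scaled to control siRNA as percent viability; sensitisation given as log2 of untreated divided by camptothecin-treated viability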
- Scale: log2 vehicle/camptothecin viability: higher = stronger sensitisation to camptothecin; viability with camptothecin and viability without drug: higher = more viable cells
- Active means: 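Each gene scored by redundant siRNA activity (RSA) over its individual siRNA ratios; a gene is called active at p < 0.001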

Target gene | reagent no. | log2 vehicle/camptothecin viability | viability with camptothecin (% of control) | viability without drug (% of control)
PCMTD2 | 1 | 0.238 | 99.6 | 117
PCMTD2 | 2 | -0.355 | 68.4 | 53.5
PCMTD2 | 3 | -0.401 | 73.6 | 55.7
HMGCS2 (3-hydroxy-3-methylglutaryl-CoA synthase 2) | 1 | -0.103 | 84.4 | 78.6
HMGCS2 (3-hydroxy-3-methylglutaryl-CoA synthase 2) | 2 | 0.898 | 60.2 | 112
HMGCS2 (3-hydroxy-3-methylglutaryl-CoA synthase 2) | 3 | -0.114 | 109 | 101
HMGCS2 (3-hydroxy-3-methylglutaryl-CoA synthase 2) | 4 | 0.296 | 82.1 | 101
ROPN1 (rhophilin associated tail protein 1) | 1 | 0.179 | 102 | 115
ROPN1 (rhophilin associated tail protein 1) | 2 | -0.0341 | 39.6 | 38.7
ROPN1 (rhophilin associated tail protein 1) | 3 | 0.189 | 27 | 30.8
ROPN1 (rhophilin associated tail protein 1) | 4 | -0.306 | 72.7 | 58.8
TCF7L1 (transcription factor 7 like 1) | 1 | -0.642 | 62.6 | 40.1
TCF7L1 (transcription factor 7 like 1) | 2 | -0.0395 | 110 | 107
TCF7L1 (transcription factor 7 like 1) | 3 | -0.189 | 70 | 61.4
TCF7L1 (transcription factor 7 like 1) | 4 | -0.315 | 66.7 | 53.6
MKRN3 (makorin ring finger protein 3) | 1 | -0.299 | 90.2 | 73.3
MKRN3 (makorin ring finger protein 3) | 2 | 0.0438 | 80.3 | 82.8
CD248 (CD248 molecule) | 1 | -0.293 | 93 | 75.9
CD248 (CD248 molecule) | 2 | 0.0382 | 88.5 | 90.9
CD248 (CD248 molecule) | 3 | -0.664 | 94.9 | 59.9
CCNE1 (cyclin E1) | 1 | -0.0403 | 89.1 | 86.7
CCNE1 (cyclin E1) | 2 | -0.26 | 96.9 | 80.9
CCNE1 (cyclin E1) | 3 | 0.137 | 86.5 | 95.2
CABIN1 (calcineurin binding protein 1) | 1 | -0.053 | 96.5 | 93
CABIN1 (calcineurin binding protein 1) | 2 | -0.376 | 72.1 | 55.6
CABIN1 (calcineurin binding protein 1) | 3 | -0.218 | 82.6 | 71
CABIN1 (calcineurin binding protein 1) | 4 | -0.107 | 85.7 | 79.6
ETNK2 (ethanolamine kinase 2) | 1 | -0.522 | 78.3 | 54.5
ETNK2 (ethanolamine kinase 2) | 2 | 0.166 | 76.4 | 85.8
ETNK2 (ethanolamine kinase 2) | 3 | 0.194 | 61.5 | 70.4
ETNK2 (ethanolamine kinase 2) | 4 | -0.469 | 118 | 85
PDE5A (phosphodiesterase 5A) | 1 | -0.664 | 71.4 | 45
PDE5A (phosphodiesterase 5A) | 2 | -0.015 | 92.1 | 91.1
PDE5A (phosphodiesterase 5A) | 3 | 0.0912 | 26.8 | 28.6
PDE5A (phosphodiesterase 5A) | 4 | -0.0406 | 99.6 | 96.8
HTR2A (5-hydroxytryptamine receptor 2A) | 1 | -0.0562 | 52.3 | 50.3
HTR2A (5-hydroxytryptamine receptor 2A) | 2 | -0.00702 | 95.6 | 95.2
HTR2A (5-hydroxytryptamine receptor 2A) | 3 | -0.342 | 123 | 96.8
HTR2A (5-hydroxytryptamine receptor 2A) | 4 | 0.0986 | 55.8 | 59.7
TRPM1 | 1 | 0.213 | 38.6 | 44.8
TRPM1 | 2 | 0.716 | 28.9 | 47.5
TRPM1 | 3 | -0.0716 | 76 | 72.3
TRPM1 | 4 | -0.0977 | 109 | 102
PATE1 (prostate and testis expressed 1) | 1 | -0.294 | 65.6 | 53.5
PATE1 (prostate and testis expressed 1) | 2 | -0.259 | 62.5 | 52.2
PATE1 (prostate and testis expressed 1) | 3 | -0.0858 | 90.8 | 85.6
PATE1 (prostate and testis expressed 1) | 4 | -0.0151 | 106 | 105

6 of these entries, reformatted.
Target gene,reagent no.,log2 vehicle/camptothecin viability,viability with camptothecin (% of control),viability without drug (% of control)
CCNE1 (cyclin E1),1,-0.0403,89.1,86.7
CCNE1 (cyclin E1),2,-0.26,96.9,80.9
CCNE1 (cyclin E1),3,0.137,86.5,95.2
CABIN1 (calcineurin binding protein 1),1,-0.053,96.5,93
CABIN1 (calcineurin binding protein 1),2,-0.376,72.1,55.6
CABIN1 (calcineurin binding protein 1),3,-0.218,82.6,71

Continued:
Target gene | reagent no. | log2 vehicle/camptothecin viability | viability with camptothecin (% of control) | viability without drug (% of control)
TAPBP (TAP binding protein) | 1 | -0.0789 | 123 | 116
TAPBP (TAP binding protein) | 2 | -0.129 | 95.8 | 87.6
TAPBP (TAP binding protein) | 3 | -1.43 | 53.9 | 20
TAPBP (TAP binding protein) | 4 | -0.29 | 84.5 | 69.1
TAPBP (TAP binding protein) | 5 | -0.0526 | 38.6 | 37.2
TAPBP (TAP binding protein) | 6 | 0.0297 | 95.1 | 97.1
TAPBP (TAP binding protein) | 7 | -0.438 | 58.6 | 43.3
TAPBP (TAP binding protein) | 8 | 1.4 | 4.21 | 11.1
GRK4 (G protein-coupled receptor kinase 4) | 1 | -0.515 | 87 | 60.9
GRK4 (G protein-coupled receptor kinase 4) | 2 | 0.00974 | 83 | 83.5
GRK4 (G protein-coupled receptor kinase 4) | 3 | -0.598 | 84.6 | 55.9
GRK4 (G protein-coupled receptor kinase 4) | 4 | 0.547 | 67.3 | 98.3
NPY (neuropeptide Y) | 1 | -0.0718 | 85.4 | 81.2
NPY (neuropeptide Y) | 2 | 0.321 | 67.5 | 84.3
NPY (neuropeptide Y) | 3 | -0.426 | 69.9 | 52.1
NPY (neuropeptide Y) | 4 | 0.0799 | 82.1 | 86.8
ERCC3 (ERCC excision repair 3, TFIIH core complex helicase subunit) | 1 | -0.42 | 11.9 | 8.88
ERCC3 (ERCC excision repair 3, TFIIH core complex helicase subunit) | 2 | -0.373 | 75.3 | 58.1
ERCC3 (ERCC excision repair 3, TFIIH core complex helicase subunit) | 3 | -0.47 | 72.8 | 52.5
ERCC3 (ERCC excision repair 3, TFIIH core complex helicase subunit) | 4 | 0.0359 | 60.6 | 62.2
CALCA (calcitonin related polypeptide alpha) | 1 | -0.317 | 65.1 | 52.2
CALCA (calcitonin related polypeptide alpha) | 2 | 0.358 | 79.2 | 102
CALCA (calcitonin related polypeptide alpha) | 3 | -0.302 | 126 | 102
CALCA (calcitonin related polypeptide alpha) | 4 | -0.068 | 100 | 95.6
CALCA (calcitonin related polypeptide alpha) | 5 | -0.191 | 79.9 | 70
CALCA (calcitonin related polypeptide alpha) | 6 | -0.468 | 77 | 55.7
CALCA (calcitonin related polypeptide alpha) | 7 | -0.261 | 74.5 | 62.2
CALCA (calcitonin related polypeptide alpha) | 8 | 0.184 | 77.4 | 87.9
